The list does not hold the whole screen: it is rich in T/C values a quarter to a half above the control, in often repeated tests (any T/C) and in doses without a T/C. Other doses and runs of a compound stand elsewhere. T/C is the treated group as % of the vehicle group. Some entries give survivors of the animals treated and no T/C: the source files T/C as zero there, which appears to mark a toxic dose or a test without result, not a measured value. Some survivor counts are full or nearly so, which does not show that the dose was tolerated: the source hardly ever lists a survival T/C far under the control, and the zero likely stands for such cases as well. Survivors were counted at the toxicity check, usually on the fifth day, unless a day is given; later deaths do not show. Schedule codes are those of the source, taken here to give the interval after Q, in days (D) or hours (H), and the number of doses after X. Where survival is the endpoint, the PubChem record calls one and a half times the control and up active, and a quarter to a half above the control has no call in these data; cut-offs in other NCI protocols can differ. Some T/C values are followed by the survivors on the day toxicity was checked, most often the fifth; where none is given, no animal had died by that day. Some entries were tested several times; the values are given in rising order.
Test system: B6C3F1 mice, ip Sarcoma M5076, median survival T/C
Test: NCI In Vivo Anticancer Drug Screen. Data for tumor model Sarcoma M5076 (intraperitoneal) in B6C3F1 mice
Conditions: T/C endpoint: median survival time, higher T/C = longer survival
Summary of the method: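 Mice carrying the transplanted tumour received compound treatment. Survival was recorded, and each value is the treated-group measurement divided by that of the vehicle-dosed control group.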

[1] = dose: 100.0 mg/kg/injection, schedule: Q04DX004 (ip), vehicle: saline with Tween-80

Question: With `O=C(CSc1nnc(-c2ccc(Cl)cc2)s1)Nc1nccs1` as the molecule, how does the survivor count (dose: 75.0 mg/kg/injection, schedule: Q04DX004 (ip), vehicle: saline with Tween-80) read?
Answer: 10 of 10 on day 14

Question: And the survivor count (dose: 150.0 mg/kg/injection, schedule: Q04DX004 (ip), vehicle: saline with Tween-80)?
Answer: 10 of 10 on day 14

Question: What about the survivor count (dose: 300.0 mg/kg/injection, schedule: Q04DX004 (ip), vehicle: saline with Tween-80) of the same molecule?
Answer: 10 of 10 on day 14

Question: And the survivor count (dose: 600.0 mg/kg/injection, schedule: Q04DX004 (ip), vehicle: saline with Tween-80)?
Answer: 8 of 10 on day 14

Question: Which T/C (dose: 50.0 mg/kg/injection, schedule: Q04DX004 (ip), vehicle: saline with Tween-80) does the source give for `COc1cc([N+](=O)[O-])ccc1C(=O)Nc1c2ccccc2nc2ccccc12` here?
Answer: 148 % of control [7 of 10 alive on day 14]

Question: What about the survivor count [1] of the same molecule?
Answer: 0 of 10 on day 14

Question: And the survivor count (dose: 200.0 mg/kg/injection, schedule: Q04DX004 (ip), vehicle: saline with Tween-80)?
Answer: 0 of 10 on day 14

Question: And the survivor count (dose: 400.0 mg/kg/injection, schedule: Q04DX004 (ip), vehicle: saline with Tween-80)?
Answer: 0 of 10 on day 14

Question: What about the survivor count (dose: 800.0 mg/kg/injection, schedule: Q04DX004 (ip), vehicle: saline with Tween-80) of the same molecule?
Answer: 0 of 10 on day 14

Question: Which T/C (dose: 15.0 mg/kg/injection, schedule: Q04DX004 (ip), vehicle: Klucel (hydroxypropylcellulose) (HPC)) does the source give for `CC(C)(C)c1cc2c3c(c1)Oc1cc(C(C)(C)C)cc4c1C3(O)c1c(cc(C(C)(C)C)cc1O4)O2` here?
Answer: 127 % of control

Question: What about the T/C (dose: 25.0 mg/kg/injection, schedule: Q04DX004 (ip), vehicle: Klucel (hydroxypropylcellulose) (HPC)) of the same molecule?
Answer: 127 and 127 % of control [7 of 10 alive on day 14]

Question: What about the survivor count (dose: 41.66 mg/kg/injection, schedule: Q04DX004 (ip), vehicle: Klucel (hydroxypropylcellulose) (HPC)) of the same molecule?
Answer: 7 of 10 on day 14

Question: What about the survivor count (dose: 50.0 mg/kg/injection, schedule: Q04DX004 (ip), vehicle: Klucel (hydroxypropylcellulose) (HPC)) of the same molecule?
Answer: 1 of 10 on day 14

Question: And the survivor count (dose: 69.44 mg/kg/injection, schedule: Q04DX004 (ip), vehicle: Klucel (hydroxypropylcellulose) (HPC))?
Answer: 1 of 10 on day 14

Question: And the survivor count (dose: 100.0 mg/kg/injection, schedule: Q04DX004 (ip), vehicle: Klucel (hydroxypropylcellulose) (HPC))?
Answer: 0 of 10 on day 14

Question: How did the survivor count [1] turn out when `O=C1C=CC(=CC=C2C=CN(CCCCCCCCCCCO)C=C2)C=C1` was run?
Answer: 5 of 10 on day 14

Question: `O=c1[nH]cnc2n[nH]nc12` was tested. Which survivor count (dose: 1200.0 mg/kg/injection, schedule: Q04DX004 (ip), vehicle: Klucel (hydroxypropylcellulose) (HPC)) did it give?
Answer: 3 of 10 on day 14

Question: How did the T/C (dose: 60.0 mg/kg/injection, schedule: Q04DX005 (ip), vehicle: alkali diluted with saline) turn out when `NC(C/[N+]([O-])=N/O)C(=O)O` (stereo not drawn) was run?
Answer: 127 % of control

Question: And the survivor count (dose: 480.0 mg/kg/injection, schedule: Q04DX005 (ip), vehicle: alkali diluted with saline)?
Answer: 5 of 8 on day 17

Question: Which survivor count (dose: 400.0 mg/kg/injection, schedule: Q04DX004 (ip), vehicle: saline) does the source give for `CC#CCOCC(O)CCl` (stereo not drawn) here?
Answer: 10 of 10 on day 14

Question: And the survivor count (dose: 800.0 mg/kg/injection, schedule: Q04DX004 (ip), vehicle: saline)?
Answer: 0 of 10 on day 14

Question: What about the survivor count (dose: 800.0 mg/kg/injection, schedule: Q04DX004 (ip), vehicle: suspension in saline) of the same molecule?
Answer: 0 of 10 on day 14

Question: How did the survivor count (dose: 800.0 mg/kg/injection, schedule: Q04DX004 (ip), vehicle: DMSO) turn out when `COc1ccc(-c2cc(C(=O)Nc3cc(C(F)(F)F)cc(C(F)(F)F)c3)c3ccccc3n2)cc1` was run?
Answer: 0 of 10 on day 14

From PubChem BioAssay AID292 (DTP/NCI, 2004)
